Experimental data published in publication PMC6770473, “Proximity ligation assay to study protein–protein interactions of proteins on two different cells” (Biotechniques, 2018).
These are yes or no findings as the source states them, for the method shown. Binding seen in cells or lysates may run through a third protein. Some entries that bind do so weakly or less than the wild type.

Sequences of proteins named here, by UniProt entry; tags and fusion partners are left off. Residues count along the entry.
UniProt P19256, residues 29-250: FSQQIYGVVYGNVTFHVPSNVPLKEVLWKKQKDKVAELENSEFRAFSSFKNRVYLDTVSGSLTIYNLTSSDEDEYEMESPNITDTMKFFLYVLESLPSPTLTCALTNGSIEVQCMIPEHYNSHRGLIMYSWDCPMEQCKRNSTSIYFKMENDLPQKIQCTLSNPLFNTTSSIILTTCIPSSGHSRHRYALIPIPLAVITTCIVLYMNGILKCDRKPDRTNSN
UniProt P06729, residues 25-351: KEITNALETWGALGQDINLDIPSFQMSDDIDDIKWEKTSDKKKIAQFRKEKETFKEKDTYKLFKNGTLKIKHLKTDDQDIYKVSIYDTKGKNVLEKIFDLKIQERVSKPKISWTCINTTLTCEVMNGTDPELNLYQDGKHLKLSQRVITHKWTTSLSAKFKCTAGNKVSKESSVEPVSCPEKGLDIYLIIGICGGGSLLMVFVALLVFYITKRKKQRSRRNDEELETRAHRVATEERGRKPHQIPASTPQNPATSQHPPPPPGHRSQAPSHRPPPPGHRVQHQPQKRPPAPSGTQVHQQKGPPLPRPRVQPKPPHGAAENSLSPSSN

Assays:
[1] = target: CD58 (human (endogenous in HFLS-RA)) (UniProt P19256); assay: proximity ligation; Jurkat cells (CD2) coated on chamber slides, HFLS-RA cells (CD58) added over them, co-cultured 48 h at 37°C, methanol-fixed; Duolink PLA with mouse anti-CD2 and goat anti-CD58 primary antibodies; no peptide
[2] = target: CD58 (human (endogenous in HFLS-RA)) (UniProt P19256); assay: proximity ligation; inhibition format: HFLS-RA cells treated with SFTI-a (50 nM to 100 μM) for 2 h at 4°C, then added over Jurkat cells; 48 h co-culture; loss of CD2-CD58 PLA red dots; only the binder purified

Molecule	binding [1]	binding [2]
CD2 (from UniProt P06729 25-351) (receptor)	binds	
CKASAPPSCYDGDD (head-to-tail cyclization; disulfide bond) [SFTI-a, Cyclo(…)]		binds
